# ± gives the standard deviation of the averaged measurements. Only a part is listed here, and it is no random draw. Most entries show no effect beyond the scatter of the controls.
# Sequences of proteins named here, by UniProt entry; tags and fusion partners are left off. A change or cut given only in a name is not applied to a line headed by its entry.
# UniProt Q9H9T3: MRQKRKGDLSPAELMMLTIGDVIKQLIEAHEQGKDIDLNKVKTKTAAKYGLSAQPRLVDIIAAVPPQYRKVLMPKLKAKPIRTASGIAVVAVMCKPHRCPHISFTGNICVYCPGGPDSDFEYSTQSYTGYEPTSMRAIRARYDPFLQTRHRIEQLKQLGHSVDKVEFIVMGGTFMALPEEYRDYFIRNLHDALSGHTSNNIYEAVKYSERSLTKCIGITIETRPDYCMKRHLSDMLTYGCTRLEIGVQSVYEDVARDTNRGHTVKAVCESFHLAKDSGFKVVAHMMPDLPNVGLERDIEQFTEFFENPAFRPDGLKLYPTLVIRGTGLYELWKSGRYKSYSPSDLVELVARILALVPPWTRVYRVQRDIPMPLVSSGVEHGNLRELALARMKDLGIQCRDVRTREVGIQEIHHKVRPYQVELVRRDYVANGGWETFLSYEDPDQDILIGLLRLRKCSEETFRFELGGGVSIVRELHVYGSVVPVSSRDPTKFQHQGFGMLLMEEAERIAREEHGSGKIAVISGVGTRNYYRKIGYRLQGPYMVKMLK
# UniProt Q9C0B7: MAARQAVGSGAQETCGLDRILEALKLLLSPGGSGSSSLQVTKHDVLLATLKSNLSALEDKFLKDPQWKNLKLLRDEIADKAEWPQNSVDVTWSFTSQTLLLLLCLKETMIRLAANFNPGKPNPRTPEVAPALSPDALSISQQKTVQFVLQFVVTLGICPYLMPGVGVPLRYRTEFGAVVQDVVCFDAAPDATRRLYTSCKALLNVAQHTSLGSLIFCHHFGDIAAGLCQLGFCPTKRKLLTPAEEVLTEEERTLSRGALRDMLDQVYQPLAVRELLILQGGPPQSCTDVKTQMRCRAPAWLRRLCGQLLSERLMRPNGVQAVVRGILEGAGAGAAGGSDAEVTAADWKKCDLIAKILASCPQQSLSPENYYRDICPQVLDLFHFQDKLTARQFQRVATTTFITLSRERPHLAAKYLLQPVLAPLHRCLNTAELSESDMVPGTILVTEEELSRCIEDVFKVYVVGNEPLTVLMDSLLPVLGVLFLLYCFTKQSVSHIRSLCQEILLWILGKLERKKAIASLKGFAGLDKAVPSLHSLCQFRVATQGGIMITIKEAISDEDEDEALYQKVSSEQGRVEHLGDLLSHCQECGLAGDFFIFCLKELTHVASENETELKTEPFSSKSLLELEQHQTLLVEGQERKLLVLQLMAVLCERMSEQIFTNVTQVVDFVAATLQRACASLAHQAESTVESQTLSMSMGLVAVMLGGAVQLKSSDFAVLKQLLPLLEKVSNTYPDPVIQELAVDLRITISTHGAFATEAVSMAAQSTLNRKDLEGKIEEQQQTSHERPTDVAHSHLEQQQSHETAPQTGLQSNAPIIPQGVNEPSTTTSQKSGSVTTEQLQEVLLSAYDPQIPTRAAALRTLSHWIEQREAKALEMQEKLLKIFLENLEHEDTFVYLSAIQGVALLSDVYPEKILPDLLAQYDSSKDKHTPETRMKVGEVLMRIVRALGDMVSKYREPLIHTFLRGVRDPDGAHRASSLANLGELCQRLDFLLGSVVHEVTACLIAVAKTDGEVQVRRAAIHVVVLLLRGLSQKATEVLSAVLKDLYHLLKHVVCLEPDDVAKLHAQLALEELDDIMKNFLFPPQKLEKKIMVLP
# UniProt Q9H0J9: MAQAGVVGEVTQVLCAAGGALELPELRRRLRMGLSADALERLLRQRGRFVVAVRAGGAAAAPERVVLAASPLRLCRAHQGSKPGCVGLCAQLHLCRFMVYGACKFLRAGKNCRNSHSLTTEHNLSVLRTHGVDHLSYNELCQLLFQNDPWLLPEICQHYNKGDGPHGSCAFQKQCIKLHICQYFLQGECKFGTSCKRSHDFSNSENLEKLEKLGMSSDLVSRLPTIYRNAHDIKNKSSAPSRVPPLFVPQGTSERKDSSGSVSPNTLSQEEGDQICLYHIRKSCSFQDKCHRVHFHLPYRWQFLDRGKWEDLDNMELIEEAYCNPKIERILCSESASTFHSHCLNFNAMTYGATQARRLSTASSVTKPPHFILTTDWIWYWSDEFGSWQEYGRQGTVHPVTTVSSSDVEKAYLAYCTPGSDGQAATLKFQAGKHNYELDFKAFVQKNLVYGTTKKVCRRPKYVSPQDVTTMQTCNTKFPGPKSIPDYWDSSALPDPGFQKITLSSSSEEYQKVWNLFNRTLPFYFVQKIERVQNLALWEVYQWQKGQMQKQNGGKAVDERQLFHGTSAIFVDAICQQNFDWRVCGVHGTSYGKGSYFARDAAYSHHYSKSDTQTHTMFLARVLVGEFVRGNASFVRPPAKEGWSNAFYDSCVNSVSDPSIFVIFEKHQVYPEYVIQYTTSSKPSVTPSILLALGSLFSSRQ
# UniProt Q9HCI7: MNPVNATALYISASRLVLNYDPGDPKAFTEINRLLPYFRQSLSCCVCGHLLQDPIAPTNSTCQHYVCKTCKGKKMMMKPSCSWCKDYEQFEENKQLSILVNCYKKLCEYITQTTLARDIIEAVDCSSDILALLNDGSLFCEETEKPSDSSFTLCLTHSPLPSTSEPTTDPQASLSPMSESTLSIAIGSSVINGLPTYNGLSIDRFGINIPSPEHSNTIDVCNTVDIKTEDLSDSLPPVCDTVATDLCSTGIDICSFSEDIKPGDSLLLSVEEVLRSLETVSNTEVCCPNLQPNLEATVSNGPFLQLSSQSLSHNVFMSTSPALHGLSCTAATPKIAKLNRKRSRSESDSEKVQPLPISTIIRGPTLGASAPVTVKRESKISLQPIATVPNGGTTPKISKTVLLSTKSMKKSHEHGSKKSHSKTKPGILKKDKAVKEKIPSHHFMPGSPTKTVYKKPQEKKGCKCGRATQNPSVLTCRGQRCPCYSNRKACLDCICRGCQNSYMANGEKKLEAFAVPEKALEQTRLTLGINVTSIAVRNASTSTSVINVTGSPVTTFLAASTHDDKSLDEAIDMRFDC
# UniProt Q9H081: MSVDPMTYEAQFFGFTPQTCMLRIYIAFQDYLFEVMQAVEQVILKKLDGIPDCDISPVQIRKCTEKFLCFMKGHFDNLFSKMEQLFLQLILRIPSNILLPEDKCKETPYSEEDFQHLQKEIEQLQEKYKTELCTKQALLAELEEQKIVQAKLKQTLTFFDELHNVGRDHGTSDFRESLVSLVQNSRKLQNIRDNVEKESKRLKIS
# UniProt Q9H8W4: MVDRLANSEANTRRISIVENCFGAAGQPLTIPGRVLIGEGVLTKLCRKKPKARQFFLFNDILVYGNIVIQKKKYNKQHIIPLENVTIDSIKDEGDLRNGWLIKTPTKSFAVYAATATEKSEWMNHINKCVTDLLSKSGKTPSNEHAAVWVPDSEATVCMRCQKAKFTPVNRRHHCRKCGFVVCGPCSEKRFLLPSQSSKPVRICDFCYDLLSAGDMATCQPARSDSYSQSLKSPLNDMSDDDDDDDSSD
# UniProt Q9H0X9: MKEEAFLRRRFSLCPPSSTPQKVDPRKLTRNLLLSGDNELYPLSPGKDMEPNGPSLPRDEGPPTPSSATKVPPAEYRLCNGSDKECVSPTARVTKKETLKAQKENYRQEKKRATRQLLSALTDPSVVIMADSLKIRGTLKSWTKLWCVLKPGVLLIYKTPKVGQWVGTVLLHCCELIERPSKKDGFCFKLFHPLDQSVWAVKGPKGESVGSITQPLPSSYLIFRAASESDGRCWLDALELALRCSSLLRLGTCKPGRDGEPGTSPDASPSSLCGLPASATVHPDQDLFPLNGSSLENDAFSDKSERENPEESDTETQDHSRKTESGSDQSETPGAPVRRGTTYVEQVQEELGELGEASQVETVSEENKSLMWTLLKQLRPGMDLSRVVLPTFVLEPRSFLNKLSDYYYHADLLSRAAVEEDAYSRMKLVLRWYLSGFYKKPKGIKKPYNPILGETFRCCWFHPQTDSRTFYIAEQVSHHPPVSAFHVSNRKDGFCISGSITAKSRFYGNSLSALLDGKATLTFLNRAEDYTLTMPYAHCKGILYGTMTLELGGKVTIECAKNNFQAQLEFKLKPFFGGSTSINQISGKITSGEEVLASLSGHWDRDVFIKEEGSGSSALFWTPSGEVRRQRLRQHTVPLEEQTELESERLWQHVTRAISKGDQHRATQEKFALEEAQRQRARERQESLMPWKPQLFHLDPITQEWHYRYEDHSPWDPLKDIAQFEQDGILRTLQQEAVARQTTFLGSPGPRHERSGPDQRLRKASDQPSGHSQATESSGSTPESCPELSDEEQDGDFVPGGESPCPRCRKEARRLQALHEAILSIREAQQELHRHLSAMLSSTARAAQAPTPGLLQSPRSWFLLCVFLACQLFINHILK
# UniProt Q9H871: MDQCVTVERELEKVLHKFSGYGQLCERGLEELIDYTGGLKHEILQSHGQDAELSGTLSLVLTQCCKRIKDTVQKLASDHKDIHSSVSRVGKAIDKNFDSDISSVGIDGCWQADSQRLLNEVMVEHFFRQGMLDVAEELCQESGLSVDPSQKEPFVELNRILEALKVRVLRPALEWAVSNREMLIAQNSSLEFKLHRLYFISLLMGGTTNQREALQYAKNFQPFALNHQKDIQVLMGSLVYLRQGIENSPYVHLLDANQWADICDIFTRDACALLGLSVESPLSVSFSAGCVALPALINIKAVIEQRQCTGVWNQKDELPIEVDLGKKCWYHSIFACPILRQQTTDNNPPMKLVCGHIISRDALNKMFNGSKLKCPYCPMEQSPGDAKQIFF
# UniProt Q9H4X1: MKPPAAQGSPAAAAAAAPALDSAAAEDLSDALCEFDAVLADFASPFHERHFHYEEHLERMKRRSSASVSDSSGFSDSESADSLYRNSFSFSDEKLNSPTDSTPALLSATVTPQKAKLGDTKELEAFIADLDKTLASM
# UniProt Q9H1C4: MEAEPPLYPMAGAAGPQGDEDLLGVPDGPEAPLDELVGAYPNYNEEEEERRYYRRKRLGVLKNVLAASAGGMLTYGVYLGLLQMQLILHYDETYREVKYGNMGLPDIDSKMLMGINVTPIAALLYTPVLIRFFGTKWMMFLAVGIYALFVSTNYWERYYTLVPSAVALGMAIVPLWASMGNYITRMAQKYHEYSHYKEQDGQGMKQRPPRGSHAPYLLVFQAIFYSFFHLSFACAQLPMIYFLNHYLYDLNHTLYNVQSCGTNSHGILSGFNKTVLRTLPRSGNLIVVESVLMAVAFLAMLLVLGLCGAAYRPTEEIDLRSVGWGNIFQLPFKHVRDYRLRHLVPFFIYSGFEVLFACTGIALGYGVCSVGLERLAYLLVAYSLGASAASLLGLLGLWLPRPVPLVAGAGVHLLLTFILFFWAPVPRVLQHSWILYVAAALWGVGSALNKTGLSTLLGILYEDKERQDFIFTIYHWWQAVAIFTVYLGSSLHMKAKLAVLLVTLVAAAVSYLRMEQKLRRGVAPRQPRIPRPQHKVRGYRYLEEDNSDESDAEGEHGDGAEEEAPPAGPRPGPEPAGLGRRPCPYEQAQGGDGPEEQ
# UniProt Q9GZS1, whole entry: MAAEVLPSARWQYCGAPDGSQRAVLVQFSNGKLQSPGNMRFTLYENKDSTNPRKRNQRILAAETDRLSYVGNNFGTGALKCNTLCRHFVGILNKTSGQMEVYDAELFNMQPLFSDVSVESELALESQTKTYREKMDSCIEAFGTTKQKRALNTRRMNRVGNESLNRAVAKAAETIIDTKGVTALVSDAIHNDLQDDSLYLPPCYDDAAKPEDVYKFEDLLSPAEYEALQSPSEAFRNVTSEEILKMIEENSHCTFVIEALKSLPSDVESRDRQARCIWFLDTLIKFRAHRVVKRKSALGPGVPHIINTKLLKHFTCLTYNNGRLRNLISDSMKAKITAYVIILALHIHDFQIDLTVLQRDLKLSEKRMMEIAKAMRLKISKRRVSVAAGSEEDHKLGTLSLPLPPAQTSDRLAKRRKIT
# UniProt Q9C0B5: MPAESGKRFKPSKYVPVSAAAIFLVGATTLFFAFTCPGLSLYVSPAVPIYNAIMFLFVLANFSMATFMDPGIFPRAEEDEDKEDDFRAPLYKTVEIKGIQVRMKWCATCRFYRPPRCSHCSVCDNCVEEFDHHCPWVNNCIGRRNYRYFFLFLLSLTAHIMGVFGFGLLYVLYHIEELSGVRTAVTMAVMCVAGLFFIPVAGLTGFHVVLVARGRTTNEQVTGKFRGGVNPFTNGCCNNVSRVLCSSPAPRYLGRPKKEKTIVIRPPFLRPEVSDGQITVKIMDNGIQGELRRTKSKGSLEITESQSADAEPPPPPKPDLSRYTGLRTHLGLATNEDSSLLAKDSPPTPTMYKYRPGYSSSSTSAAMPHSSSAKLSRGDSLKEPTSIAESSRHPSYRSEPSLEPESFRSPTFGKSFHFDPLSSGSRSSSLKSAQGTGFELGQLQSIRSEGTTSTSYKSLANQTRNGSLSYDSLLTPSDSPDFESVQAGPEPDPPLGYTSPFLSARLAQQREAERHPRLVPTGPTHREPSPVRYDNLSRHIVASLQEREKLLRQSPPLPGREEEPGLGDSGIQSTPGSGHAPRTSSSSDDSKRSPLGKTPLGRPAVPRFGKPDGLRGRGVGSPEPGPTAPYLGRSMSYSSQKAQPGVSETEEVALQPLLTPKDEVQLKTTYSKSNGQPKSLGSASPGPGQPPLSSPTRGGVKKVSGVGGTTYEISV
# Compound: Nc1ncnc2c1ncn2[C@@H]1O[C@H](COP(=O)(O)OP(=O)(O)OP(=O)(O)O)[C@@H](O)[C@H]1O [adenosine triphosphate]
# Assay: NP40-soluble protein abundance relative to vehicle (solubility fold change) (ratio); higher = more soluble protein in presence of ATP
# Method in brief: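 In three independent experiments, Jurkat crude lysate made by Dounce homogenisation was treated for 10 min at room temperature and then 3 min at 37 °C with eight concentrations ranging from 0.1 to 10 mM. It was then solubilised with 0.8% NP40 plus benzonase for 60 min at 4 °C and ultracentrifuged. The supernatant was TMT-labelled for LC-MS/MS, and each value is the fold change against the detergent-processed vehicle for the same replicate, using vsn-normalised intensities.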
Target,NP40-soluble protein abundance (concentration: 0.1mM),NP40-soluble protein abundance (concentration: 0.5mM)
UniProt Q9GZM8 and related entries,0.899 ± 0.25,0.795 ± 0.27
MTIF3 (UniProt Q9H2K0),0.976 ± 0.13,0.946 ± 0.11
NOL11 (UniProt Q9H8H0),1.03 ± 0.052,1.12 ± 0.077
UniProt Q9HA38 and related entries,0.9716 ± 0.0018,0.993 ± 0.034
UniProt Q9H9T3 and related entries,1.04 ± 0.061,1.05 ± 0.018
GPN2 (UniProt Q9H9Y4),1.16 ± 0.21,1.11 ± 0.022
UniProt Q9C0B7,0.996 ± 0.13,1.07 ± 0.1
GHITM (UniProt Q9H3K2),0.978 ± 0.033,0.974 ± 0.076
COMMD5 (UniProt Q9GZQ3),0.892 ± 0.079,0.782 ± 0.16
UniProt Q9H9A5 and related entries,0.992 ± 0.023,1.1 ± 0.081
PARL (UniProt Q9H300),0.891 ± 0.066,0.929 ± 0.16
ILKAP (UniProt Q9H0C8),1.03 ± 0.08,1.05 ± 0.075
PARP12 (UniProt Q9H0J9),1.09 ± 0.046,1.07 ± 0.018
CDT1 (UniProt Q9H211),1.01 ± 0.022,1 ± 0.088
UniProt Q9H7C9,0.933 ± 0.05,0.905 ± 0.098
DNTTIP1 (UniProt Q9H147),1.016 ± 0.0067,1.04 ± 0.031
GLIPR2 (UniProt Q9H4G4),1.01 ± 0.045,1.01 ± 0.026
UniProt Q9H2V7 and related entries,1.04 ± 0.055,1.04 ± 0.096
CCDC86 (UniProt Q9H6F5),0.945 ± 0.042,1.04 ± 0.071
UniProt Q9H8W3,1.04 ± 0.07,1.18 ± 0.082
UniProt Q9HCI7 and related entries,1.17 ± 0.2,1.4 ± 0.23

Target,NP40-soluble protein abundance (concentration: 0.1mM),NP40-soluble protein abundance (concentration: 0.5mM)
MIS12 (UniProt Q9H081),0.902 ± 0.17,0.894 ± 0.2
RACGAP1 (UniProt Q9H0H5),1 ± 0.03,1.1 ± 0.034
PLEKHF2 (UniProt Q9H8W4),1.03 ± 0.057,1 ± 0.035
UniProt Q9H0W8,0.982 ± 0.02,1.03 ± 0.052
UniProt Q9H0X9 and related entries,0.979 ± 0.082,0.969 ± 0.041
PUS7L (UniProt Q9H0K6),1.12 ± 0.055,1.06 ± 0.17
UniProt Q9NP72 and related entries,1.06 ± 0.055,1.03 ± 0.051
TFB2M (UniProt Q9H5Q4),0.97 ± 0.075,0.93 ± 0.081
PELI2 (UniProt Q9HAT8),1.06 ± 0.039,1.01 ± 0.055
PLEKHA1 (UniProt Q9HB21),1 ± 0.065,1.02 ± 0.03
UniProt Q9H6Z4 and related entries,0.9739 ± 0.0088,0.966 ± 0.03
UniProt Q9H8P0 and related entries,1.05 ± 0.07,0.956 ± 0.06
UniProt Q9H7D7-2,1 ± 0.042,1.01 ± 0.11
C12orf10 (UniProt Q9HB07),1.04 ± 0.032,1.02 ± 0.053
ACAD9 (UniProt Q9H845),1.02 ± 0.068,1.04 ± 0.046
UniProt Q9H8K7,1.04 ± 0.033,1.08 ± 0.15
NUCKS1 (UniProt Q9H1E3),0.901 ± 0.086,0.834 ± 0.1
UniProt Q9H871,1.03 ± 0.069,1.02 ± 0.1
UniProt Q9H4X1 and related entries,0.903 ± 0.13,0.935 ± 0.083
UniProt Q9HCE0 and related entries,0.953 ± 0.035,1 ± 0.09
UNC93B1 (UniProt Q9H1C4),1.28 ± 0.15,1.04 ± 0.14

# Complete entries, quoted from the list.
# PLEKHA1 (UniProt Q9HB21) is listed with NP40-soluble protein abundance (concentration: 0.1mM): 1 ± 0.065; NP40-soluble protein abundance (concentration: 0.5mM): 1.02 ± 0.03
# UniProt Q9H6Z4 and related entries is listed with NP40-soluble protein abundance (concentration: 0.1mM): 0.9739 ± 0.0088; NP40-soluble protein abundance (concentration: 0.5mM): 0.966 ± 0.03

# More records follow.

Target,NP40-soluble protein abundance (concentration: 0.1mM),NP40-soluble protein abundance (concentration: 0.5mM)
UniProt Q9HBE1 and related entries,1.02 ± 0.027,1.05 ± 0.13
WDR76 (UniProt Q9H967),1.03 ± 0.035,1.08 ± 0.12
UniProt Q9H857 and related entries,1.06 ± 0.068,1.02 ± 0.082
SCAF1 (UniProt Q9H7N4),1.05 ± 0.031,1.256 ± 0.012
UniProt Q9H1P3 and related entries,1.01 ± 0.067,1.01 ± 0.041
ETNK1 (UniProt Q9HBU6),1.04 ± 0.089,1.07 ± 0.047
PTPN23 (UniProt Q9H3S7),1.06 ± 0.067,1.04 ± 0.028
RPAP3 (UniProt Q9H6T3),0.985 ± 0.023,1.03 ± 0.038
UniProt Q9H6Q4,1.03 ± 0.071,0.963 ± 0.029
NMRAL1 (UniProt Q9HBL8),1.01 ± 0.052,1.01 ± 0.032
UniProt Q9H668,0.925 ± 0.18,0.991 ± 0.15
GPN1 (UniProt Q9HCN4),1.02 ± 0.026,0.992 ± 0.014
UniProt Q9GZS1-2,1 ± 0.051,1.03 ± 0.036
CUEDC2 (UniProt Q9H467),0.893 ± 0.085,0.875 ± 0.088
UniProt Q9H9G7,1.07 ± 0.12,1.07 ± 0.13
UniProt Q9C0B5 and related entries,0.992 ± 0.023,0.909 ± 0.022
UniProt Q9H4L7 and related entries,1.02 ± 0.034,1.01 ± 0.045
ISCU (UniProt Q9H1K1),0.959 ± 0.0098,0.944 ± 0.02
MRPL44 (UniProt Q9H9J2),0.97 ± 0.081,1.01 ± 0.082
UniProt Q9HC38-2|F6TLX2,1.03 ± 0.084,0.998 ± 0.13
UniProt Q9GZN8 and related entries,1.12 ± 0.11,1.06 ± 0.049
